This is one part of the list.
The molecules below were run on T1, CTL2-GFP (C. trachomatis L2/434/Bu, GFP-expressing). Conditions: bulk GFP, single well; 28.5 h, 10 µM; inhibitor.
T1 construct: L2/434/Bu, GFP-expressing
Design: species or system HeLa; Intracellular C. trachomatis growth in HeLa cells, bulk GFP fluorescence relative to DMSO

SMILES | % of control remaining [%]
O=S(=O)(c1ccc(Cl)cc1)N1CCN(S(=O)(=O)N2CCOCC2)CC1 [CBK266878] | 162.273
OCc1ccccc1-c1cncc(NCCc2c[nH]c3ccccc23)n1 [CBK037852] | 108.269
O=C(Cn1c(=O)cc(O)c2ccccc21)N1CCN(c2ccccn2)CC1 [CBK291117] | 142.08
COc1ccc(Nc2cc(-c3ccc(SC)cc3)ncn2)c(C)c1 [CBK091042] | 153.363
CCOC(=O)CCNC(=O)c1cc2cccc(OC)c2o1 [CBK149816] | 116.909
O=C(O)CC(NC(=O)c1ccccc1)c1ccco1 (centres unmarked) [CBK268843] | 149.635
COc1ccc(OC(C)C(=O)Nc2ccc(S(N)(=O)=O)cc2)cc1 (centres unmarked) [CBK263646] | 130.556
COc1cc(-c2cncc(NCCc3ccncc3)n2)cc(OC)c1OC [CBK065405] | 186.103
Nc1ncc(-c2ccncc2)nc1NCc1cccnc1 [CBK063879] | 167.601
COc1ccc(NC(=O)c2c(NC(=O)CN3CCCC(C)C3)sc3c2CCC3)cc1 (centres unmarked) [CBK265061] | 137.166
O=C(O)c1ccc2c(c1)C(=O)N(c1ccc(/C=C/C(=O)c3ccccc3)cc1)C2=O [CBK261181] | 115.926
Cc1ccc2cccc(OS(=O)(=O)c3ccc(Cl)c(C)c3Cl)c2n1 [CBK263984] | 81.5054
CCC(O)c1cc2n(n1)CCN(C(=O)c1cn(-c3ccccc3)nn1)C2 (centres unmarked) [CBK306708] | 84.2569
COC(=O)c1ccc(COc2nc3ccccc3nc2/C=C/c2cccc([N+](=O)[O-])c2)cc1 [CBK268776] | 138.106
Cc1cccc(C(=O)N2CCN(Cc3cc(=O)n4ccsc4n3)CC2)c1 [CBK305037] | 125.031
O=C(CN1CCOCC1)N1CCc2ccccc21 [CBK200271] | 76.4791
Cc1cc(COC(=O)N2CCCC(F)(F)C2)cc(C)n1 [CBK200151] | 113.953
CCN(CC)CC(=O)Nc1ccc(Br)cc1C(=O)c1ccccc1 [CBK262983] | 114.488
c1ccc(CNCc2nc(-c3ccccc3)no2)cc1 [CBK024404] | 103.644
Cc1cnn(CC(=O)NC(C)c2cc3cc(Cl)ccc3o2)c1 (centres unmarked) [CBK281447] | 123.377
O=C1NC2(CCN(C(=O)CCc3ccc(-c4ccccc4)o3)CC2)Nc2ccccc21 [CBK286316] | 55.1481
CC(NC(=O)CCc1cscn1)c1nc(-c2ccncc2)cs1 (centres unmarked) [CBK305260] | 140.48
CC(CN1CCOCC1)C(=O)N1CC(C(=O)N2CCN(c3ccccc3)CC2)C1 (centres unmarked) [CBK286047] | 122.533
CCN1CC2(CCN(Cc3nc4ccccc4s3)CC2)c2ccccc21 [CBK136993] | 92.4987
COc1cncc(-c2cncc(N[C@H](C)c3ccccc3)n2)c1 [CBK065537] | 97.6883

Taken from above:
% of control remaining [%], `c1ccc(CNCc2nc(-c3ccccc3)no2)cc1` [CBK024404] is entered as 103.644
% of control remaining [%], `O=C(Cn1c(=O)cc(O)c2ccccc21)N1CCN(c2ccccn2)CC1` [CBK291117] is entered as 142.08

The results go on.

SMILES | % of control remaining [%]
CC(C)C(Nc1nc2ncn(Cc3ccccc3)c2c(=O)[nH]1)C(=O)O (centres unmarked) [CBK261685] | 113.848
Cc1nc(-c2ccco2)nc2sc(C(=O)N(C)CC3COc4ccccc4O3)c(C)c12 (centres unmarked) [CBK295347] | 153.693
COc1ccc(N2C(=O)CSC23C(=O)N(Cc2ccc(Cl)cc2)c2ccccc23)cc1 (centres unmarked) [CBK092396] | 114.914
Cc1ccc(-c2cc(C(=O)N3CCOCC3)c3cc(Br)ccc3n2)cc1 [CBK066901] | 126.67
O=C(C1COc2ccccc2O1)N(Cc1cccnc1)c1nc2c(F)cccc2s1 (centres unmarked) [CBK294421] | 140.46
COc1ccc([C@@]23CC[C@@H](NC(=O)Nc4cc(C)ccc4F)C[C@@H]2N(C)CC3)cc1OC [CBK036509T] | 100.243
CSc1cccc(CN(C)C(=O)c2cc(C#N)c(=O)[nH]c2C)c1 [CBK306839] | 114.077
CC(C)(C)C(=O)NC(c1nccs1)C1CCN(C(=O)C2CC2)CC1 (centres unmarked) [CBK284678] | 124.697
CCC(=O)N[C@H]1CC[C@@]2(Cc3ccc(OC)cc3)CCN(C)[C@H]2C1 [CBK024126] | 133.628
O=C(Nc1ccc(F)cc1)Nc1cccnc1Cl [CBK058509] | 126.025
COc1cccc(Oc2nccnc2-c2cnn(C)c2)c1 [CBK107071] | 87.4025
CN(C)C(=O)CN1C(=O)N2CCCN=C2c2ccc(Cl)cc21 [CBK284392] | 67.4516
O=C(O)CC(C(=O)Nc1ccc(Cl)cc1)C1CCCO1 (centres unmarked) [CBK264583] | 100
COc1cccc(-c2nnc(SCc3nc4ccccc4[nH]3)n2N)c1 [CBK267549] | 145.645
CCc1c(C)nc2ccccc2c1SCC(=O)O [CBK153279] | 114.835
O=C(CCC(=O)c1ccc2c(c1)Cc1ccccc1-2)Nc1ccc(C(=O)O)cc1 [CBK268673] | 114.314
Cc1ccc(C(=O)Nc2ncn(CC(=O)N3CCCCCC3)n2)cc1 [CBK304569] | 89.6533
Cc1occc1-c1nn(C2CCNCC2)c(=O)o1 [CBK284757] | 112.952
O=C(CCN1C(=O)c2ccccc2C1=O)N1CCOCCOCCN(C(=O)CCN2C(=O)c3ccccc3C2=O)CCOCCOCC1 [CBK260964] | 96.9991
O=C(Nc1ccc(N2CCNCC2)nc1)C1CCC1 [CBK004743T] | 182.434
Cn1sc(=O)c2cc(S(=O)(=O)NC3CC3)ccc21 [CBK009163] | 96.4621
O=C(c1cc(F)c(F)cc1F)N1CCC2(CCN(Cc3nc4ccccc4[nH]3)C2)C1 (centres unmarked) [CBK132134] | 102.792
COc1ccccc1OCCn1c(=N)n(CC(N)=O)c2ccccc21 [CBK268822C] | 133.387
OCc1ccccc1-c1cn2ccnc2c(Nc2ccccc2)n1 [CBK037999] | 122.917
CCOc1ccc(-n2c(N)c(C(=O)NCc3ccco3)sc2=S)cc1 [CBK265578] | 119.96

From publication PMC12040169 (PLOS Biology, 2025)
